Results of single-concentration screens

Toxoplasma: 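Assay of Toxoplasma gondii numbers, read through their beta-galactosidase reporter with a colour substrate. Concentration: 10 µM. Higher reads as fewer parasites (inferred from which compounds were picked for retests). About 67,000 compounds were tested under these conditions; 0.38% (about 260) showed 50% or more at least once.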
T. brucei: 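Whole-parasite assay of Trypanosoma brucei over 72 hours; the read-out is not stated. Tested at 30 µM. Higher reads as stronger inhibition (inferred: compounds with an IC50 in retests scored well above the rest). Values scatter widely below zero; nearly all retest evidence comes from the higher of the two concentrations used. Size under these conditions: about 64,000 compounds, about 940 of them at 50% or above in at least one test.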
Leishmania in macrophages: 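Cell assay of Leishmania donovani living inside macrophages; the read-out is not stated. Tested at 30 µM. The record gives no direction; compounds that gave an IC50 in retests scored well above the rest, so higher reads as stronger inhibition. About 69,000 compounds were tested under these conditions; 1.5% (about 1,000) showed 50% or more at least once.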

Results are given as percent effect. The record does not define 0% and 100%; most values in the screen are far below 50% and negative numbers occur (in some assays of this library far below -100). Compounds were drawn at random from those tested, without regard to their results. A dash means the value is not listed here; it may have been measured.

| # | structure | Toxoplasma | T. brucei | Leishmania in macrophages |
|---|---|---|---|---|
| 1 | `Cc1ccccc1CNC(=O)C1CCN(Cc2nccn2C)CC1` | -15.72% | -1.367% | 11.79% |
| 2 | `NC(=O)c1nc2c(s1)CCN(C(=O)Nc1cccc(Cl)c1)CC2` | 12.1% | -31.68% | 20.75% |
| 3 | `Cc1cc(C#N)ccc1S(=O)(=O)N1CCN(C)Cc2ccccc21` | -0.05348% | 15.93% | -1.377% |
| 4 | `Cc1nc(C2CCCN2CCS(C)(=O)=O)no1` (stereo not drawn) | 8.559% | -13.96% | 12.91% |
| 5 | `COc1ccc(CCNC(=O)CN2CCOCS2(=O)=O)cc1` | 2.382% | -31.84% | 0.9024% |
| 6 | `O=C(O)C(F)(F)F.O=C(O)C(F)(F)F.[H][C@@]12COC[C@]1(COc1cccnc1)CN(Cc1nccs1)C2` | -6.397% | -24.49% | -28.66% |
| 7 | `Cc1nc(C)n(C2CCCN(C(=O)COc3cccc(C#N)c3)C2)n1` (stereo not drawn) | -14.48% | -4.212% | 1.566% |
| 8 | `Cc1cc(C(=O)Nc2cnn(CC(=O)NC3CCCC3)c2)c(C)s1` | 19.36% | -44.51% | 27.06% |
| 9 | `[H][C@@]12CC[C@@]([H])(C1)N(CC(=O)N1CCc3c(nc(N(C)C)nc3N(C)C)C1)C2` | - | -6.249% | 19.01% |
| 10 | `CSCCC(=O)N1CCCN(Cc2cnn(C(C)C)c2)CC1` | -18.16% | -22.24% | 10.34% |
| 11 | `CN1C(=O)CC(C(=O)O)C12CCN(Cc1ccc(Cl)cc1F)CC2` (stereo not drawn) | -2.203% | -25.54% | -3.571% |
| 12 | `CC(=O)NC1CCN(c2c(C#N)cnc3c(C)cc(F)cc23)CC1` | 6.932% | 22.38% | -8.386% |
| 13 | `CCc1nnc(CN2CCCCC2Cn2cncn2)o1` (stereo not drawn) | 17.56% | - | 5.787% |
| 14 | `CC(=O)Nc1ccccc1Sc1nc(Br)nn1C` | -0.03906% | 0.8157% | 7.72% |
| 15 | `CCO[C@H]1C[C@@H](O)C12CCN(C(=O)CCN1CCCC1=O)CC2` | 18.76% | 25.47% | 18.71% |
| 16 | `CCCC(=O)NC1CCCN(C(=O)c2ccc(C)nc2)C1` (stereo not drawn) | -3.168% | -61.18% | -20.31% |
| 17 | `CCn1c(CC2CCN(C(=O)c3ccnn3C)CC2)n[nH]c1=O` | -1.815% | - | 15.21% |
| 18 | `CCN1C(=O)C(c2ccccc2)CC12CCN(CCO)CC2.O=C(O)C(F)(F)F` (stereo not drawn) | -16.36% | -26.59% | -10.61% |
| 19 | `[H][C@@]12COC[C@H](C(=O)Nc3cnccn3)[C@]1([H])CN(c1ncc(F)cn1)C2` | 7.074% | -50.57% | 23.21% |
| 20 | `COC1COC2(CCN(Cc3ccco3)CC2)C1` (stereo not drawn) | -0.7684% | -2.936% | -6.233% |
| 21 | `CCN(Cc1ccccc1Cl)Cn1nc(C)c2c(C)onc2c1=O` | -25.17% | 15.89% | 12.04% |
| 22 | `Cc1nc2cc(=O)[nH]n2c(C)c1CNC(=O)C(C)(C)c1ccccc1` | 3.344% | -37.3% | -3.861% |
| 23 | `O=C(CN1CCc2onc(-c3ccccc3F)c2C1)NC1CC1` | 6.247% | -72.39% | -38.08% |
| 24 | `CN(C)c1ncc2c(n1)C1(CCN(Cc3ccccc3F)C1)COC2.O=C(O)C(F)(F)F` (stereo not drawn) | 27.24% | 9.15% | 37.04% |
| 25 | `Cc1[nH]c2ccc(CNc3cc(C(=O)NC(C)C)ccn3)cc2c1C` | -38.25% | 50.33% | 26.98% |
| 26 | `Fc1ccc(OCCCNC2=NCCN2)cc1.I` | -5.008% | -11.35% | 43.37% |
| 27 | `c1cnnc(N2CCCC2CNCc2cscn2)c1` (stereo not drawn) | -20.81% | 5.42% | 17.83% |
| 28 | `CCOC(=O)NCCC(=O)NCc1ccc(Oc2ccc(F)cc2)nc1` | -4.588% | -33.03% | 4.476% |
| 29 | `CCn1c(C2CCN(C(=O)COCC(F)(F)C(F)F)CC2)n[nH]c1=O` | 0.05804% | -2.472% | 6.518% |
| 30 | `CC(C)(C)OC(=O)CNC(=O)CCc1nnc(-c2ccsc2)o1` | 18.24% | -32.79% | 8.513% |
| 31 | `Cc1ccc(C(=O)N2CCC3(CCCN(c4ncc(F)cn4)C3)C2)cn1.O=C(O)C(F)(F)F` (stereo not drawn) | -7.44% | -66.48% | 22.45% |
| 32 | `O=C(Cn1nc2c(cc1=O)CSCC2)N[C@@H](Cc1ccccc1)C(=O)O` | 8.76% | 12.34% | -9.512% |
| 33 | `Cc1nc(O)c2nnn(C[C@H]3CCCN3C(=O)CCC3CCCC3)c2n1` | -0.8328% | -20.65% | -8.299% |
| 34 | `NC(=O)c1ccc(CN2CCC(N3CCCCC3)CC2)cc1` | 9% | -2.631% | 24.02% |
| 35 | `O=C(Cc1ccc2c(c1)OCO2)N1CCN(c2ccncc2)CC1` | -12.39% | -60.7% | 23.21% |
| 36 | `CNc1cc(CCNC(=O)CC(C)C)nc(-c2ccccn2)n1` | 31.45% | 14.55% | 30.16% |
| 37 | `COc1cc(CNc2cc(-c3nncn3C)ccn2)cc(OC)c1OC` | 5.909% | 4.458% | -4.185% |
| 38 | `Cc1cnn(CC2CCCN2C(=O)c2c(F)cccc2Cl)c1` (stereo not drawn) | 7.446% | - | 23.63% |
| 39 | `O=C(NCc1cccnc1N1CCCC(O)C1)c1ccc2[nH]nnc2c1` (stereo not drawn) | -2.392% | -53.92% | -23.53% |
| 40 | `O=C(O)C(F)(F)F.O=C(O)C(F)(F)F.[H][C@@]12CCCO[C@]1([H])[C@H](N(C)Cc1ccco1)CN2Cc1c(C)noc1C` | -8.854% | -16.82% | -15.5% |
| 41 | `Cn1nccc1CN1CCCC(COc2ccccc2F)C1` (stereo not drawn) | -16.6% | - | 53.5% |
| 42 | `COCCn1cncc1Cn1ncc2ccccc2c1=O` | -8.182% | 10.47% | 18.7% |
| 43 | `Cc1noc(CN(C)c2nc(-c3ccco3)nc3c2CCN(C)CC3)n1` | -9.341% | -58.11% | -34.19% |
| 44 | `[H][C@@]12CCCN[C@]1([H])[C@@H](c1cccc(OC)c1)CN2C(=O)c1ccccc1` | 6.689% | 13.2% | 21.45% |
| 45 | `O=C(O)C(F)(F)F.O=C(O)C(F)(F)F.[H][C@@]12COC[C@]1(CNC(=O)c1ccsc1)CN(Cc1cccc(C)n1)C2` | -13.31% | 7.605% | 19.96% |
| 46 | `COCCC(=O)N1CCC2(COCc3c(C)nc(NCC4CC4)nc32)C1` (stereo not drawn) | 2.274% | 41.57% | 4.108% |
| 47 | `CN(Cc1ccccc1F)C(=O)CS(=O)(=O)Cc1ccc(Cl)c(Cl)c1` | -5.611% | -10.81% | 17.15% |

The first 5 entries again:

structure,Toxoplasma,T. brucei,Leishmania in macrophages
Cc1ccccc1CNC(=O)C1CCN(Cc2nccn2C)CC1,-15.72%,-1.367%,11.79%
NC(=O)c1nc2c(s1)CCN(C(=O)Nc1cccc(Cl)c1)CC2,12.1%,-31.68%,20.75%
Cc1cc(C#N)ccc1S(=O)(=O)N1CCN(C)Cc2ccccc21,-0.05348%,15.93%,-1.377%
Cc1nc(C2CCCN2CCS(C)(=O)=O)no1 (stereo not drawn),8.559%,-13.96%,12.91%
COc1ccc(CCNC(=O)CN2CCOCS2(=O)=O)cc1,2.382%,-31.84%,0.9024%

Measurements from “University of Dundee, Small-Polar-MMV Screening Library” (2021), ChEMBL document CHEMBL3988442.